Experimental data as given in PubChem BioAssay AID504444 (National Center for Advancing Translational Sciences (NCATS), 2011).
The whole screen tested about 360,000 compounds, of which about 7,500 (2.1%) were called active. The shares of active, inactive and inconclusive entries below differ from those in the screen. Calls follow the shape of the dose curve; as a rule, active = well fitted inhibition curve with a large enough effect; inconclusive = small, poorly fitted or top-dose-only effect, or effect the other way; inactive = flat fitted curve, though single readings scatter. Potencies of inconclusive entries are doubtful fits and often do not repeat.

Experiment: Nrf2 qHTS screen for inhibitors; also: nearly all actives have a fitted effect of over 60% in size
Settings: A549 ARE-Fluc reporter, luciferase luminescence, 18-24 h; activity change, negative = inhibition: at 46 µM (top of the series)
Method in brief: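 A549 ARE_Fluc cells (5000/well, 5% FBS OPTI-MEM) pre-incubated 2 h, then treated with compounds 18-24 h at 37C/5% CO2 in concentration-response. CellTiter-Fluor viability read first; BugLite luciferase luminescence after 15 min at room temperature gives Nrf2 activity.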
% is scaled to controls: 0 for no effect and ±100 for the full control effect; potency is read from the fitted curve at half-maximal effect.

Row | SMILES | Potency | activity change, negative = inhibition
1 | O=C(CN(c1ccc(F)cc1)S(=O)(=O)c1ccccc1)NCCSC1CCCCC1 | inconclusive: 0.82 µM [activator, full curve, poor fit] | –
2 | Cc1ccnc(N/C=C/C(=O)c2ccc(Br)cc2)c1 | inconclusive: 7.31 µM [activator, partial curve] | –
3 | CCC(=O)Oc1c(Sc2ccc(Cl)cc2)c(C)nn1-c1ccccc1 | – | inactive: -21.7% [at 9.27 µM]
4 | CCCCOC(=O)c1ccc(NC(=O)CSc2nnnn2C)cc1 | inconclusive: 2.59 µM [activator, full curve] | –
5 | CC(=O)c1ccc(NC(=O)c2ccc3snnc3c2)cc1 | inconclusive: 3.66 µM [activator, partial curve] | –
6 | CC(C)Cc1cc(C(=O)NCc2cccs2)no1 | inconclusive: 18.4 µM [activator, single point] | –
7 | O=C(O)CCCC(=O)Nc1ccc(Cl)cc1 | inconclusive: 20.6 µM [activator, partial curve, poor fit] | –
8 | CC(Oc1ccccc1)C(=O)Nc1ccc(S(=O)(=O)NCC2CCCO2)cc1 (configuration not stated) | inconclusive: 16.4 µM [falling, single point] | –
9 | Cn1nnnc1SCc1nc2scc(-c3ccccc3)c2c(=O)[nH]1 | inactive | –
10 | COc1ccc(NC(C)=O)cc1CP(=O)(c1ccccc1)c1ccccc1 | inactive | –
11 | COc1cc(/C=N/NC(=O)c2ccccc2Cl)ccc1Oc1ccc([N+](=O)[O-])cn1 | inconclusive: 29.1 µM [falling, single point] | –
12 | c1ccc2sc(-c3ccncc3)nc2c1 | inconclusive: 9.2 µM [activator, partial curve] | –
13 | Cc1cccc(NC(=O)CSc2nc3ccc(NC(=O)c4ccccc4)cc3s2)c1 | inactive | –
14 | Cc1ccc(NC(=O)NNC(=O)COc2ccc3ccccc3c2)cc1 | inconclusive: 7.31 µM [activator, partial curve, poor fit] | –
15 | COc1cc(NC(=O)Cn2c(=O)cc(C)c3c(C)nn(-c4ccc(C)cc4)c32)cc(OC)c1 | inconclusive: 11.6 µM [falling, partial curve, poor fit] | –
16 | Fc1ccc(NCc2ccccc2-c2nnc(-c3ccccc3Cl)o2)cc1 | inconclusive: 4.11 µM [activator, full curve, poor fit] | –
17 | CCc1ccc(-c2nc(CSCC(=O)NCc3ccco3)c(C)o2)cc1 | inconclusive: 2.59 µM [falling, partial curve] | –
18 | Cc1ccc(CNc2nnc(C)c3nnn(Cc4ccc(F)cc4)c23)cc1 | inconclusive: 20.6 µM [falling, partial curve, poor fit] | –
19 | COc1cccc(CNC(=O)C(=O)N2CCC3(CC2)OCCN3S(=O)(=O)c2ccc(C)cc2)c1 | inconclusive: 32.6 µM [falling, partial curve, poor fit] | –
20 | O=C(CSc1n[nH]c(-c2ccc(S(=O)(=O)NC3CCCCC3)cc2)n1)N1CCCC1 | active: 16.4 µM | –
21 | Cc1ccccc1Cn1ccc(NC(=O)c2cc3nc(-c4ccco4)cc(C(F)(F)F)n3n2)n1 | inconclusive: 25.9 µM [falling, partial curve, poor fit] | –

Retrieved by compound from above, 2 records:
Row | SMILES | Potency | activity change, negative = inhibition
19 | COc1cccc(CNC(=O)C(=O)N2CCC3(CC2)OCCN3S(=O)(=O)c2ccc(C)cc2)c1 | inconclusive: 32.6 µM [falling, partial curve, poor fit] | –
5 | CC(=O)c1ccc(NC(=O)c2ccc3snnc3c2)cc1 | inconclusive: 3.66 µM [activator, partial curve] | –

Continued:

Row | SMILES | Potency | activity change, negative = inhibition
22 | O=C(CCNS(=O)(=O)c1ccccc1)NNC(=O)c1csc(N2CCOCC2)n1 | inconclusive: 23.1 µM [activator, partial curve, poor fit] | –
23 | CCCNC(=O)c1cc(C)no1 | inactive | –
24 | Brc1ccc2c(c1)OCCOCCOCCOCCOCCO2 | inactive | –
25 | CCn1c(/C=N/Nc2ccc(C(=O)O)cc2)nc2ccccc21 | inconclusive: 13 µM [falling, partial curve, poor fit] | –
26 | O=C1NC(=O)c2cc([N+](=O)[O-])cc3cccc1c23 | inconclusive: 8.2 µM [falling, partial curve] | –
27 | COC(=O)C1CCN(C(=O)C23CCC(C)(C(=O)O2)C3(C)C)CC1 (configuration not stated) | inconclusive: 11.6 µM [activator, partial curve] | –
28 | C=CCN1C(=O)C2(OCCCO2)c2cc(C)ccc21 | inactive | –
29 | CC(=O)OCC=C1CCC2C3CC(C)C4=CC(=O)CCC4(C)C3C(O)CC12C (configuration not stated) | inconclusive: 1.16 µM [falling, partial curve] | –
30 | C=CCOC(=O)C1=C(C)NC(SCC(=O)NC(=O)OCC)=C(C#N)C1c1cccnc1 (configuration not stated) | inactive | –
31 | O=C(Cc1ccc(F)cc1)Nc1nc(-c2ccc(F)c(F)c2)cs1 | active: 23.1 µM | –
32 | Cc1ccc(S(=O)(=O)N2CCN(c3nc(-c4cccs4)nc(C)c3C)CC2)cc1 | inactive | –
33 | COc1ccc(NC(=O)C/C(C)=N/NC(=O)c2ccccn2)c(OC)c1 | inconclusive: 20.6 µM [activator, single point] | –
34 | Cc1ccc(-n2ccn(CC(=O)NCCc3ccccc3)c(=O)c2=O)cc1C | inconclusive: 18.4 µM [activator, partial curve, poor fit] | –
35 | COc1cc(NC(C(=O)Nc2cccc(C(C)=O)c2)c2ccccc2)cc(OC)c1OC (configuration not stated) | inconclusive: 1.64 µM [falling, partial curve, poor fit] | –
36 | CN1c2ccsc2/C(=N/Nc2ccccc2)CS1(=O)=O | inconclusive: 4.11 µM [activator, partial curve] | –
37 | CC(C)(C)c1ccc(-c2nc(NC(=O)CSc3ncnc4sc5c(c34)CCCC5)ns2)cc1 | inconclusive: 29.1 µM [activator, single point] | –
38 | COc1cc(C(=O)OCC(=O)Nc2c(F)cccc2F)cc(OC)c1C | inconclusive: 4.11 µM [activator, full curve, poor fit] | –
39 | COc1ccc(-c2c(C)nc3c(-c4ccccn4)cnn3c2N)cc1 | inconclusive: 25.9 µM [activator, single point] | –
40 | CC1=Nc2ccccc2N=C(NC(=O)CSC(=S)N2CCCCC2)C1c1ccccc1 (configuration not stated) | inconclusive: 29.1 µM [activator, single point] | –
41 | Cc1ccc(C(=O)Nc2sc(C)c(-c3ccccc3)c2C(N)=O)cc1[N+](=O)[O-] | inconclusive: 0.082 µM [activator, full curve, poor fit] | –
42 | Cc1cccc(S(=O)(=O)N2CCN(S(=O)(=O)c3ccc4c(c3)OCCO4)CC2)c1 | inactive | –
